Laboratory results: PubChem BioAssay AID1671195 (Yale University, 2021)
Shown is an unselected part of about 22,000 reagents tested. About 1,510 of all reagents (6.9%) were called active. 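Active includes knockdowns raising or lowering LDL uptake; positive z-scores mean more uptake, negative mean less.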 Reagents against one gene are numbered here.

Assay: 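Regulators of LDL receptor activity judged by labelled LDL uptake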 (primary screen)
Cells: human Huh7 hepatoma cells
Reagents: siRNA pool against human genes, 18 nM
Time to read-out: about 2 to 2.5 days of knockdown, then 8 h LDL uptake
Challenge: DiI-labelled LDL at 30 µg/ml for 8 h, in lipoprotein-deficient serum medium
Detection: 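Fluorescent LDL signal imaged in cells, scaled to the plate median, robust z-score for each replicate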
Scale: robust z-score: higher = more LDL uptake after knockdown
Hit rule: 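Active when two or more replicates show a robust z-score above 2 or below -2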

Which result is listed for ZNF844 (GeneID 284391)?
robust z-score, replicate 1: 0.284; robust z-score, replicate 2: 0.0721; robust z-score, replicate 3: 0.156; Call: inactive

For ZC3H7B (GeneID 23264), what does the deposit list?
robust z-score, replicate 1: 0.656; robust z-score, replicate 2: -0.573; robust z-score, replicate 3: 1.9; Call: inactive

What is on record for COCH (GeneID 1690)?
robust z-score, replicate 1: 0.526; robust z-score, replicate 2: 0.374; robust z-score, replicate 3: -0.392; Call: inactive

How did the screen score GLCCI1 (GeneID 113263)?
robust z-score, replicate 1: -1.37; robust z-score, replicate 2: -1.14; robust z-score, replicate 3: -1.12; Call: inactive

With MIS12 (GeneID 79003), what was measured?
robust z-score, replicate 1: 1.07; robust z-score, replicate 2: 0.895; robust z-score, replicate 3: 0.621; Call: inactive

With BDKRB2 (GeneID 624), what does the deposit list?
robust z-score, replicate 1: 0.74; robust z-score, replicate 2: -0.195; robust z-score, replicate 3: -0.517; Call: inactive

How did the screen score H1-1 (GeneID 3024)?
robust z-score, replicate 1: 0.36; robust z-score, replicate 2: -0.431; robust z-score, replicate 3: -0.133; Call: inactive

With POU4F2 (GeneID 5458), what was measured?
robust z-score, replicate 1: -0.332; robust z-score, replicate 2: -0.932; robust z-score, replicate 3: -0.623; Call: inactive

With TMEM205 (GeneID 374882), how do the results read?
robust z-score, replicate 1: -0.143; robust z-score, replicate 2: -0.269; robust z-score, replicate 3: 0.321; Call: inactive

What did the screen give for MMD (GeneID 23531)?
robust z-score, replicate 1: 1.09; robust z-score, replicate 2: 1.39; robust z-score, replicate 3: 1.1; Call: inactive

What did the screen give for METTL21A (GeneID 151194)?
robust z-score, replicate 1: -0.565; robust z-score, replicate 2: -0.115; robust z-score, replicate 3: 0.616; Call: inactive

With NAALADL1 (GeneID 10004), what does the deposit list?
robust z-score, replicate 1: 0.419; robust z-score, replicate 2: 0.947; robust z-score, replicate 3: 0.546; Call: inactive

For LINC02709 (GeneID 440028), what does the deposit list?
robust z-score, replicate 1: -0.287; robust z-score, replicate 2: -0.311; robust z-score, replicate 3: -0.305; Call: inactive

Which result is listed for ANKRD20A5P (GeneID 440482)?
robust z-score, replicate 1: -0.194; robust z-score, replicate 2: -0.157; robust z-score, replicate 3: -0.363; Call: inactive

What did the screen give for POU6F2 (GeneID 11281)?
robust z-score, replicate 1: 0.823; robust z-score, replicate 2: 0.952; robust z-score, replicate 3: 1.03; Call: inactive

For SULT1B1 (GeneID 27284), how do the results read?
robust z-score, replicate 1: 0.738; robust z-score, replicate 2: 0.799; robust z-score, replicate 3: 1.53; Call: inactive

Just “robust z-score, replicate 3” (2 entries from above):
LINC02709 (GeneID 440028) = -0.305
ANKRD20A5P (GeneID 440482) = -0.363

The listing continues:
What did the screen give for COQ10B (GeneID 80219)?
robust z-score, replicate 1: 0.833; robust z-score, replicate 2: 0.446; robust z-score, replicate 3: 0.246; Call: inactive

What did the screen give for FZR1 (GeneID 51343)?
robust z-score, replicate 1: -0.296; robust z-score, replicate 2: -2.94; robust z-score, replicate 3: -2.18; Call: active

Which result is listed for COL5A3 (GeneID 50509)?
robust z-score, replicate 1: -1.37; robust z-score, replicate 2: 0.232; robust z-score, replicate 3: -0.142; Call: inactive

How did the screen score PLEKHA7 (GeneID 144100) #1?
robust z-score, replicate 1: 0.66; robust z-score, replicate 2: 0.404; robust z-score, replicate 3: 0.385; Call: inactive

For PLEKHA7 (GeneID 144100) #2, how do the results read?
robust z-score, replicate 1: -1.7; robust z-score, replicate 2: -1.33; robust z-score, replicate 3: -1.7; Call: inactive

With MED6 (GeneID 10001), what does the deposit list?
robust z-score, replicate 1: -1.4; robust z-score, replicate 2: -1.33; robust z-score, replicate 3: -1.34; Call: inactive

For PIDD1 (GeneID 55367), what does the deposit list?
robust z-score, replicate 1: 1.72; robust z-score, replicate 2: -0.245; robust z-score, replicate 3: 2.3; Call: inactive

For CHRNA9 (GeneID 55584), what does the deposit list?
robust z-score, replicate 1: 3.6; robust z-score, replicate 2: 3.59; robust z-score, replicate 3: 2.78; Call: active
